PMC10893636, “Synergistic enhancement of the mouse Pramex1 and Pramel1 in repressing retinoic acid (RA) signaling during gametogenesis” (Cell & Bioscience, 2024)
Results are given in words; binding and its absence hold for the method and conditions named. In cells and extracts the contact can be indirect.

Amino acid sequences for entries named in this document (tags omitted).
UniProt Q9Z2C8: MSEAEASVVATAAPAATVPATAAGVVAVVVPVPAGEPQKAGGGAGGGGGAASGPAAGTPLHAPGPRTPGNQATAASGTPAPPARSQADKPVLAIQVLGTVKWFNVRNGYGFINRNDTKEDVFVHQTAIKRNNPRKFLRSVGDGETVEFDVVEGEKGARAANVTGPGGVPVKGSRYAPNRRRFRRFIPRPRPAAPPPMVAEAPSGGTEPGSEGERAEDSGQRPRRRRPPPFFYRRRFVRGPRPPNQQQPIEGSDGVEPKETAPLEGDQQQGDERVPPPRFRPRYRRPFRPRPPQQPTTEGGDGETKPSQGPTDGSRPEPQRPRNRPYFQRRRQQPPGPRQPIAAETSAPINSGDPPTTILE

Target: T1, Retinoic acid receptor alpha (RARα) (mouse (endogenous in testis)) (UniProt P11416)
T1 sequence: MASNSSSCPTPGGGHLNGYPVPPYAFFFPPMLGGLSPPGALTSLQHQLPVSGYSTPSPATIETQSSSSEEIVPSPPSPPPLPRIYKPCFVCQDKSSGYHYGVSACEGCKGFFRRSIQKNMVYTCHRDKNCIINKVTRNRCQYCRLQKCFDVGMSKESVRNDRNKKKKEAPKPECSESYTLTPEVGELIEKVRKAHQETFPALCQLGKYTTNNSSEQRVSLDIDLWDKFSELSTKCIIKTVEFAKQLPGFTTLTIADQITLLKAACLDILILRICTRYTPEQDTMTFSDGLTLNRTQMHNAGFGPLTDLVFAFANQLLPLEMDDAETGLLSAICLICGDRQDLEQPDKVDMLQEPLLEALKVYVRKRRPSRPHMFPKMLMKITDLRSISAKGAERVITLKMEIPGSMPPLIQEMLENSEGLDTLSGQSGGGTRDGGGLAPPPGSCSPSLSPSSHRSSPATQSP
Assay: co-IP; anti-PRAMEX1 or anti-RARα antibody immobilised on protein A/G magnetic beads (Pierce Crosslink Magnetic IP/co-IP Kit); P7 testis proteins of WT, Pramex1 sKO and Pramel1 sKO mice, overnight at 4 °C; Western blot, band intensity relative to input (set as 1), n = 3

For “Y-Box Binding Protein 2 (YBX2) (from UniProt Q9Z2C8 1-360)”, the binding was “no binding”.
